No constants are given. Whether binding was seen depends on the method and setting. Binding seen in cells or lysates may run through a third protein. Some entries that bind do so weakly or less than the wild type.
What follows are substances tested against AHSA1 (human) (UniProt O95433) (assay: co-IP; Fig. 4G; cells and precipitated protein not told in the legend).

Protein sequences, listed by entry. Tags and fused reporters are not part of them.
UniProt O95433: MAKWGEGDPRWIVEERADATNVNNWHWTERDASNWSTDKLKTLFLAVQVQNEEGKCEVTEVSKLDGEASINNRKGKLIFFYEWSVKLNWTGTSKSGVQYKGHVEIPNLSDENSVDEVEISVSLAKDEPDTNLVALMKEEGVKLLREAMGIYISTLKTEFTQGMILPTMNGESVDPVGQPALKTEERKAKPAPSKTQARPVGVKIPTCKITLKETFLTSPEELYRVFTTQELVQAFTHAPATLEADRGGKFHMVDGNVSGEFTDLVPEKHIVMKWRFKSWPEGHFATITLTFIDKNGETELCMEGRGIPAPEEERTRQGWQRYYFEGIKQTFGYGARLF
UniProt Q00534: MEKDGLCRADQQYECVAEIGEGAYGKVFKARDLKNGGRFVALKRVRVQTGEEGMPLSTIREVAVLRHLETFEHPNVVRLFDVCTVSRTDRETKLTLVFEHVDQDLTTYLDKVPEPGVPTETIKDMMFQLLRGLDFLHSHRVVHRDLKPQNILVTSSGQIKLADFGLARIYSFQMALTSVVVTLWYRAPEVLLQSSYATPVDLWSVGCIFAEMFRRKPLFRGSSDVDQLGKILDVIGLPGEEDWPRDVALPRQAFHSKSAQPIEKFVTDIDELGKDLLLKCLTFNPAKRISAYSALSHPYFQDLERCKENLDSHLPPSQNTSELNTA
UniProt Q13200: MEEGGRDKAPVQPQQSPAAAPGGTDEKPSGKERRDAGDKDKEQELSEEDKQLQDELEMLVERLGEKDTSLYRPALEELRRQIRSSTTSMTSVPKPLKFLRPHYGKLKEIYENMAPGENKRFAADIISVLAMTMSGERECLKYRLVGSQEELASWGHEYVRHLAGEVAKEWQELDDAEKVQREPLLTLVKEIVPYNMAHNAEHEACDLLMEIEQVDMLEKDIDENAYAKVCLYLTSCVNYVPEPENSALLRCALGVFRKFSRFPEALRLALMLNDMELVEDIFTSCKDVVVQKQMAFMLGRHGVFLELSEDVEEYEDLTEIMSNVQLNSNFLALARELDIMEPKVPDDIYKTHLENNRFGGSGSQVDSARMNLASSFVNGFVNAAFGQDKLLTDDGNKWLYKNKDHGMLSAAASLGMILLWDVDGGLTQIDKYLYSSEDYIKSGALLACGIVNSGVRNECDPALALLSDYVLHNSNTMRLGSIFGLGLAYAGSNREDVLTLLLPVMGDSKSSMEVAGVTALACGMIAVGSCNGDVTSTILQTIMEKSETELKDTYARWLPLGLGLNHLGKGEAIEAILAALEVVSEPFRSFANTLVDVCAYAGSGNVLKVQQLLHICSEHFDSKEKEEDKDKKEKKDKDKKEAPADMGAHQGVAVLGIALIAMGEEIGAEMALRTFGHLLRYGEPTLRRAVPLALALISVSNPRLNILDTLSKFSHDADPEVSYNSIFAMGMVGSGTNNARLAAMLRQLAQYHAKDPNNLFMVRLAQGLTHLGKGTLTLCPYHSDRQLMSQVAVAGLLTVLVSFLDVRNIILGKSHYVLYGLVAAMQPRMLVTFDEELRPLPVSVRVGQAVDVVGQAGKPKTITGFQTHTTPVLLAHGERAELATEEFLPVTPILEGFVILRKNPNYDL

binding, binds:
CDK6 (from UniProt Q00534 1-326)
PSMD2 (from UniProt Q13200 1-908)
the activated form of CDK6, phosphorylation of Y13 site at CDK6 (from UniProt Q00534 1-326)

From paper PMC10114437
